Test results reported in PubChem BioAssay AID493014 (National Center for Advancing Translational Sciences (NCATS), 2011).
Screen size: about 340,000 compounds; about 170 (0.05%) were called active. This list was built around the results that the source calls inconclusive (neither active nor inactive); the mix of calls is not that of the screen. The call rests on the fitted dose curve; in most records, active means well fitted inhibition curve with a large enough effect in the signal ratio, with a control signal flat (not every such curve was filed as active); inconclusive means small, poorly fitted or top-dose-only effect, or effect the other way, or a change in a side signal; inactive means flat fitted curve, though single readings scatter; the % refers to the signal ratio. Potencies beside an inconclusive call are fits to weak or partial responses and may not hold up.
Potency means the concentration at half of the fitted maximal effect.

Assay: qHTS Assay to Find Inhibitors of Chronic Active B-Cell Receptor Signaling;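 on activity change, negative = inhibition: plate controls were basal doxycycline-induced cells for no effect and cells given 10 µM MG132 for full effect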
Conditions: ABC-DLBCL IkBa-CBG/CBR reporter, luminescence ratio (green luciferase fused to IkBa over red control in TMD8 lymphoma cells), 4 h; activity change, negative = inhibition: at 46.1 µM (top of the series) unless noted
Outline: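 Concentration-response series (up to 46 uM) were applied to TMD8 dual-reporter cells for 4 h at 37C with doxycycline. Green/red ratio, after filter-overlap correction, defined %Activity; red signal alone was normalised to basal cells and zero luminescence.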
With O=C(NCCN1CCCCC1)c1cccc2c1C(=O)c1ccc(N3CCCC3)cc1S2(=O)=O the activity change, negative = inhibition was inconclusive: -0.089%.
In the case of O=C(c1ccco1)N1CCN(c2nc3c(F)cc(F)cc3s2)CC1, the activity change, negative = inhibition is reported as inconclusive: -9.79%.
With COc1cc(SC)ccc1C(=O)Nc1ccc2c(c1)OCCO2 the activity change, negative = inhibition was inconclusive: -12.3%.
In the case of Cc1ccc2cc(CN(C(=O)c3ccco3)c3ccccc3)c(=O)[nH]c2c1, the activity change, negative = inhibition is reported as inconclusive: -129%.
For O=C1c2cccc3c(N4CCOCC4)c([N+](=O)[O-])cc(c23)C(=O)N1c1cccc2ccccc12, the activity change, negative = inhibition was inconclusive: 10.8%.
In the case of c1ccc(-n2ncc3c(NCc4ccccn4)ncnc32)cc1, the Potency is reported as inconclusive: 0.291 µM [rising, full curve, poor fit].
With COc1cccc(-n2nnnc2SCC(=O)Nc2cccc(NC(C)=O)c2)c1 the Potency was inconclusive: 17.8 µM [falling, partial curve, poor fit].
With COc1ccc(CCn2nnnc2CN2CCN(C(=O)c3ccco3)CC2)cc1OC the activity change, negative = inhibition was inconclusive: -1.55%.
In the case of CC1CCN(CC(=O)Nc2cc(C(F)(F)F)ccc2Cl)CC1, the activity change, negative = inhibition is reported as inconclusive: 3.79%.
With COc1ccc(NC(=O)c2ccc(NC(=O)c3ccncc3)cc2)cc1 the activity change, negative = inhibition was “inactive”.
With COc1ccc(C(CC(=O)N2CCN(c3ccccc3)CC2)c2c(OC)cc(OC)c3ccc(=O)oc23)cc1 (configuration not stated) the activity change, negative = inhibition was inconclusive: 2.46%.
In the case of O=C1C2C3c4ccccc4C(c4ccccc43)[C@@H]2C(=O)N1c1nc(-c2ccccc2)cs1 (some centres not stated), the activity change, negative = inhibition is reported as inconclusive: 1.72%.
In the case of COc1ccccc1NC(=O)Nc1nc(CC(=O)N2CCN(c3ccccc3F)CC2)cs1, the activity change, negative = inhibition is reported as inconclusive: -11.3%.
In the case of Cc1ccc(C)c(CN2CCC(CNC(=O)Nc3ccc(C)c(C)c3)CC2)c1, the activity change, negative = inhibition is reported as “inactive”.
For CCOC(=O)c1c(NC(=O)/C=C/C(=O)O)sc(C)c1-c1ccc(C(C)(C)C)cc1, the activity change, negative = inhibition was inconclusive: -2.01%.
In the case of Cc1c(Cl)cccc1NC(=S)N1CCCCCC1, the activity change, negative = inhibition is reported as “inactive”.
With CCc1n[n+](CC(=O)c2ccccc2)c(N)s1 the Potency was inconclusive: 35.5 µM [rising, single point].
For COc1ccccc1N1C(=O)c2ccccc2NC1c1ccc(O)cc1 (configuration not stated), the activity change, negative = inhibition was inconclusive: -7.35%.
For COC(=O)c1cccc(NC(=O)NC(=O)c2ccc(Cl)cc2)c1, the activity change, negative = inhibition was inconclusive: -23.9%.
In the case of Cc1ccccc1OC(=O)C1C(c2ccccc2)C(C(=O)O)C1c1ccccc1 (configuration not stated), the activity change, negative = inhibition is reported as inconclusive: 15.4%.
For NNC(=O)CN1C(c2ccc(Cl)cc2)=Nc2ccc(Br)cc2C1c1ccccc1 (configuration not stated), the activity change, negative = inhibition was inconclusive: -0.187%.
With CC(C)c1ccc(NC(=O)Nc2cnccn2)cc1 the activity change, negative = inhibition was inconclusive: 4.96%.
In the case of COc1ccccc1CN(Cc1cc2cc(C)ccc2[nH]c1=O)Cc1nnnn1Cc1ccco1, the Potency is reported as inconclusive: 22.4 µM [falling, single point].
With Cc1ccc(C(=O)NC(=S)Nc2cccnc2Cl)cc1 the Potency was inconclusive: 35.5 µM [rising, single point].
With COCCC(=O)N1CCCC(C(=O)c2ccc3c4c(cccc24)CC3)C1 (configuration not stated) the activity change, negative = inhibition was inconclusive: -7.78%.
For CC(=O)c1nnn(-c2c(F)cccc2F)c1C, the activity change, negative = inhibition was inconclusive: 6.9%.
In the case of Cc1c(C(=O)N2CCCC(C(F)(F)F)C2)oc2ccccc12 (configuration not stated), the activity change, negative = inhibition is reported as inconclusive: 9.72%.
In the case of COc1cccc(-c2cc(C(=O)NCc3cccs3)no2)c1, the Potency is reported as inconclusive: 35.5 µM [rising, single point].
In the case of COc1cc(C(=O)/C=C/c2cccnc2)ccc1O, the Potency is reported as inconclusive: 35.5 µM [falling, single point].
In the case of COc1ccccc1CCNC(=O)C(=O)NCC(c1ccco1)S(=O)(=O)c1ccc(F)cc1 (configuration not stated), the activity change, negative = inhibition is reported as inconclusive: -2.19%.
In the case of Cc1nc2ccc(C(=O)O)cc2c2c1CC(C)S2 (configuration not stated), the Potency is reported as inconclusive: 0.58 µM [rising, full curve].
For CCCCC(=O)Nc1cccc(NC(=S)NC(=O)Cc2ccccc2)c1, the activity change, negative = inhibition was inconclusive: -31.3%.
In the case of Cc1c(CN2CCN(CC(C)C)C(CCO)C2)[nH]c2ccc(Cl)cc12 (configuration not stated), the activity change, negative = inhibition is reported as “inactive”.
In the case of Cc1onc(-c2ccccc2)c1C(=O)Nc1nnc(CC(C)(C)C)s1, the activity change, negative = inhibition is reported as “inactive”.
In the case of Cc1ccsc1/C=N/NC(=O)c1ccc2nc[nH]c2c1, the Potency is reported as inconclusive: 20.6 µM [falling, partial curve, poor fit].
For COc1ccc(OC)c(N2CC(O)=C(c3nc4ccccc4s3)C2=N)c1, the activity change, negative = inhibition was inconclusive: -5.08%.
With COc1ccc(C(=O)Nn2c(SCc3ccc([N+](=O)[O-])cc3)nc3ccccc3c2=O)cc1 the Potency was inconclusive: 31.6 µM [falling, partial curve].
For COc1ccc(NC(=O)CC2C(=O)N(C)C(=S)N2CCc2ccccc2)cc1 (configuration not stated), the activity change, negative = inhibition was “inactive”.
With Cc1cc(C(=O)CCC(=O)N2CCN(S(=O)(=O)c3ccccc3)CC2)c(C)s1 the activity change, negative = inhibition was “inactive”.
With CCOc1ccc2[nH]c3c(N4CCc5ccccc5C4)ncnc3c2c1 the activity change, negative = inhibition was inconclusive: 12.9%.
In the case of O=C(CCCSc1ccccc1)Nc1ccc(Cl)c(S(=O)(=O)N2CCOCC2)c1, the activity change, negative = inhibition is reported as inconclusive: -14%.
For O=C1NC(=O)C(CC(=O)N(Cc2cccs2)C2(C(=O)NC3CCCC3)CCCCC2)N1 (configuration not stated), the activity change, negative = inhibition was inconclusive: -3.54%.
In the case of O=C(/C=C/c1ccc(Cl)cc1Cl)NC(=S)Nc1ccccn1, the activity change, negative = inhibition is reported as inconclusive: -28.7%.
In the case of Cn1nc(-c2ccccc2)c(-c2nc(-c3cccc(C(F)(F)F)c3)no2)c1Cl, the activity change, negative = inhibition is reported as “inactive”.
For COc1ccc(Nc2nc(S(=O)(=O)c3ccc(C)cc3)c(Cl)s2)cc1, the activity change, negative = inhibition was inconclusive: -5.74%.
For Cc1ccc(OCC(=O)NNC(=O)C2CCCO2)c(C)c1 (configuration not stated), the activity change, negative = inhibition was inconclusive: 51.8%.
For C(=N/Nc1cc(N2CCOCC2)nc(N2CCOCC2)n1)/c1ccccc1, the Potency was inconclusive: 20.6 µM [falling, partial curve].
In the case of Cc1nc2ccccn2c1-c1ccnc(=S)[nH]1, the activity change, negative = inhibition is reported as “inactive”.
With COC(=O)COc1cccc(NC(=O)c2cccs2)c1 the Potency was inconclusive: 23.1 µM [falling, single point].
In the case of Cc1nc(-c2ccccc2)[nH]c(=O)c1Oc1ccc(Cl)cc1Cl, the activity change, negative = inhibition is reported as “inactive”.
In the case of CCn1c(CN2CCN(C(c3ccccc3)c3ccccc3)CC2)nc2c1c(=O)n(C)c(=O)n2C, the activity change, negative = inhibition is reported as inconclusive: 0.169%.
In the case of Cc1ccc2c(c1)C(c1ccccc1)N(C(=O)c1ccc(F)cc1)CC(=O)N2 (configuration not stated), the activity change, negative = inhibition is reported as inconclusive: -19%.
